The list is a part of this screen's results and no random one: it is rich in T/C values a quarter to a half above the control, in often repeated tests (any T/C) and in doses without a T/C. Other doses and runs of a compound stand elsewhere. T/C: endpoint of the treated group in % of that of the vehicle group. Some entries give survivors of the animals treated and no T/C: the source holds a T/C of zero for them, seemingly a mark for toxic or unscored doses. Some doses without a T/C left all or most animals alive at the check, yet need not have been tolerated: the source hardly ever lists a survival T/C far under the control, and the zero likely stands for such cases as well. Counts of survivors are from the toxicity check (mostly the fifth day) where no day follows; animals may have died later. Schedules are NCI's codes, taken here to give the interval after Q, in days (D) or hours (H), and the number of doses after X. Some structures stand for samples that the source files as different forms (salt, stereo form or complex); doses refer to the form tested. Some doses were run more than once; their values stand side by side, smallest first. Additions like (4×) count equal records among those shown. For survival time, the PubChem record calls one and a half times the control and up active, and a quarter to a half above the control has no call in these data; cut-offs in other NCI protocols can differ.
Tested on: L1210 leukemia ip in BDF1 mice, survival T/C
Test: NCI In Vivo Anticancer Drug Screen. Data for tumor model L1210 Leukemia (intraperitoneal) in B6D2F1 (BDF1) mice
Settings: T/C endpoint: mean survival time, higher T/C = longer survival
[1] = dose: 400.0 mg/kg/injection, schedule: Q04DX002 (ip), vehicle: saline with Tween-80

C[N+]1(C2CCCCC2)CCCCC1 was tested, and the survivor count (dose: 75.0 mg/kg/injection, schedule: Q01DX001 (ip), vehicle: saline) was 1 of 6 and 3 of 6, the survivor count (dose: 150.0 mg/kg/injection, schedule: Q01DX001 (ip), vehicle: saline) was 0 of 6 (2×) and 1 of 6 and the survivor count (dose: 300.0 mg/kg/injection, schedule: Q01DX001 (ip), vehicle: saline) was 0 of 6 (3×).
In the case of Cc1cc(C(N)=O)c(C#N)c(=O)[nH]1, the survivor count (dose: 300.0 mg/kg/injection, schedule: Q01DX001 (ip), vehicle: steroid suspending solution) was 2 of 6.
Cc1cc(C)c([I+]c2c(C)cc(C)cc2C)c(C)c1 was tested, and the survivor count (dose: 1.0 mg/kg/injection, schedule: Q04DX003 (ip), vehicle: acetone) was 3 of 6, the survivor count (dose: 2.0 mg/kg/injection, schedule: Q04DX003 (ip), vehicle: acetone) was 1 of 6 and the survivor count (dose: 4.0 mg/kg/injection, schedule: Q01DX001 (ip), vehicle: acetone) was 3 of 6. For the same molecule, the survivor count (dose: 8.0 mg/kg/injection, schedule: Q01DX001 (ip), vehicle: acetone) was 2 of 6 and the survivor count (dose: 16.0 mg/kg/injection, schedule: Q01DX001 (ip), vehicle: acetone) was 0 of 6.
In the case of COc1ccc(CN2CC(C)N(N)C(C)C2)cc1 (configuration not stated), the survivor count (dose: 50.0 mg/kg/injection, schedule: Q01DX005 (ip), vehicle: saline) was 0 of 3, the survivor count (dose: 200.0 mg/kg/injection, schedule: Q01DX005 (ip), vehicle: saline) was 0 of 3 and the survivor count (dose: 400.0 mg/kg/injection, schedule: Q01DX005 (ip), vehicle: saline) was 0 of 3.
For Nc1nc(CCl)cs1, the survivor count (dose: 200.0 mg/kg/injection, schedule: Q04DX003 (ip), vehicle: Klucel (hydroxypropylcellulose) (HPC)) was 0 of 6 and the survivor count (dose: 400.0 mg/kg/injection, schedule: Q04DX003 (ip), vehicle: Klucel (hydroxypropylcellulose) (HPC)) was 0 of 6.
For Cc1ccnc2c([N+](=O)[O-])cccc12, the survivor count [1] was 0 of 3.
Nc1c(Oc2cccc(C[N+]3(CCOS(=O)(=O)O)CC3)c2)cc(O)c2c1C(=O)c1ccccc1C2=O was tested, and the survivor count (dose: 400.0 mg/kg/injection, schedule: Q01DX001 (ip), vehicle: carboxymethylcellulose (CMC)) was 0 of 4.
With CC[N+](CC)(CC)Cc1ccccc1 (tested in a mixture with another compound) the survivor count (dose: 50.0 mg/kg/injection, schedule: Q01DX009 (ip), vehicle: saline) was 3 of 3, the survivor count (dose: 100.0 mg/kg/injection, schedule: Q01DX009 (ip), vehicle: saline) was 0 of 3 and 4 of 6 and the survivor count (dose: 100.0 mg/kg/injection, schedule: Q04DX003 (ip), vehicle: saline) was 3 of 6, 4 of 6, 5 of 6. For the same molecule, the survivor count (dose: 200.0 mg/kg/injection, schedule: Q01DX001 (ip), vehicle: saline) was 1 of 6, the survivor count (dose: 200.0 mg/kg/injection, schedule: Q01DX009 (ip), vehicle: saline) was 0 of 6 and the survivor count (dose: 200.0 mg/kg/injection, schedule: Q04DX003 (ip), vehicle: saline) was 0 of 6 (2×). The survivor count (dose: 400.0 mg/kg/injection, schedule: Q01DX001 (ip), vehicle: saline) was 1 of 6, the survivor count (dose: 400.0 mg/kg/injection, schedule: Q01DX009 (ip), vehicle: saline) was 0 of 6 and the survivor count (dose: 400.0 mg/kg/injection, schedule: Q04DX003 (ip), vehicle: saline) was 0 of 6 (2×).
With ONc1ccc(Cl)cc1 the survivor count (dose: 25.0 mg/kg/injection, schedule: Q01DX009 (ip), vehicle: gum acacia) was 6 of 6, the survivor count (dose: 50.0 mg/kg/injection, schedule: Q04DX003 (ip), vehicle: gum acacia) was 0 of 6 and the survivor count (dose: 100.0 mg/kg/injection, schedule: Q01DX001 (ip), vehicle: gum acacia) was 0 of 6. For the same molecule, the survivor count (dose: 200.0 mg/kg/injection, schedule: Q01DX001 (ip), vehicle: gum acacia) was 0 of 6 and the survivor count (dose: 400.0 mg/kg/injection, schedule: Q01DX001 (ip), vehicle: gum acacia) was 0 of 6.
In the case of CC(=O)Nc1ncnc2n[nH]c(C#N)c12, the survivor count (dose: 200.0 mg/kg/injection, schedule: Q01DX005 (ip), vehicle: saline with Tween-80) was 1 of 6 and the survivor count (dose: 400.0 mg/kg/injection, schedule: Q01DX005 (ip), vehicle: saline with Tween-80) was 0 of 6.
In the case of CCOC(=O)C(Br)c1cccc(OC)c1 (configuration not stated), the T/C (dose: 200.0 mg/kg/injection, schedule: Q04DX003 (ip), vehicle: saline sonified) was 127 % of control.
With OC[CH2][Hg][Cl] the survivor count (dose: 6.25 mg/kg/injection, schedule: Q01DX009 (ip), vehicle: saline) was 4 of 6, the survivor count (dose: 100.0 mg/kg/injection, schedule: Q04DX002 (ip), vehicle: saline with Tween-80) was 0 of 3 and the survivor count (dose: 200.0 mg/kg/injection, schedule: Q04DX002 (ip), vehicle: saline with Tween-80) was 0 of 3. The survivor count [1] was 0 of 3.
